For the test, the target named is StrepII-tagged ROR1-extracellular domain (human) (human) (UniProt Q01973). The test is described as follows: SPR isoaffinity plot, single concentration of ROR1-strep (40 nM per the text), purified parental mAb captured by anti-human Fc, triplicates.

Protein sequences, listed by entry. Tags and fused reporters are not part of them. Lines headed by an entry give the natural chain unless they say otherwise; changes in a name come on top. Chains listed by the source or under a name are the forms on record and can include a tag or linker.
StrepII-tagged ROR1-extracellular domain (human) (Q01973, form named): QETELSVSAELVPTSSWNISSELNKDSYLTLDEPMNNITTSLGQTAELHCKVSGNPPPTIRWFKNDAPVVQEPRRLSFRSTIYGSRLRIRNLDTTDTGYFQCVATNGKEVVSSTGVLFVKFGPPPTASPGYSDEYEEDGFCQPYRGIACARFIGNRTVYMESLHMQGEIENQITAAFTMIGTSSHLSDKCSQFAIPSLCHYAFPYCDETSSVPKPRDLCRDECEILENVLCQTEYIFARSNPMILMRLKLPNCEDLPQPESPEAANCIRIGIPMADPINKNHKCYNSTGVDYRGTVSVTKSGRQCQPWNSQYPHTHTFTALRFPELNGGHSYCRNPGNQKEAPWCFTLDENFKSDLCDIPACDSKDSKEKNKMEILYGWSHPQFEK

Results are given in words; binding and its absence hold for the method and conditions named. Some results given as binding are weak or reduced against the parent protein; the word gives no strength.

B1: chimeric mAb 2A2 (mouse variable regions, human IgG1/kappa constant regions) (antibody, V domains shown)
VH: QVQLQQSGAELVRPGASVTLSCKASGYTFSDYEMHWVIQTPVHGLEWIGAIDPETGGTAYNQKFKGKAILTADKSSSTAYMELRSLTSEDSAVYYCTGYYDYDSFTYWGQGTLVTVSA
VL: DIVMTQSQKIMSTTVGDRVSITCKASQNVDAAVAWYQQKPGQSPKLLIYSASNRYTGVPDRFTGSGSGTDFTLTISNMQSEDLADYFCQQYDIYPYTFGGGTKLEIK
notes: also called chim 2A2; parental mAb 2A2
Turning to B1, the binding entry is reported as “binds”.

Source of the values: patent US20190153092A1 (NBE THERAPEUTICS, published 2019).
